The target in this assay is 인간 CD47 단백질 (Human CD47, SPR analyte) (human) (UniProt Q08722). In words: SPR, Biacore 8K. On the technique in general: SPR reads the build-up and loss of mass on a sensor chip optically.

The chains behind the UniProt entries cited, without tags or fusion partners. Residues count along the entry.
UniProt Q08722, residues 19-139: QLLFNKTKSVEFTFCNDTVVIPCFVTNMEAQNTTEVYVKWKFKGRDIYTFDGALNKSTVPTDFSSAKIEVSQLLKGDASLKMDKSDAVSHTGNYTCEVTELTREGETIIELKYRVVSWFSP

Residue numbers refer to the chain shown, from its start. No constants are given. Whether binding was seen depends on the method and setting. Some binding calls cover weakened binding; strength is not graded here.

B1: AHF16309 전장 항체 (full length antibody, IgG4) (antibody, V domains shown)
VH: EVQLVQSGSELKKPGASVKVSCKASGYTFTSYWMHWMRQAPGQGLEWIGVIDPNDSYTSYNQGFTGRFVLSVDTSVSTAYLQISSLKAEDTAVYYCARGGKRMMDYWGQGTTVTVSS
VL: DVVMTQSPLSLPVTLGQPASISCRSSQSLVHSNGNTYLNWFQQRPGQSPRLLIYKVSNRFPGVPDRFSGSGSGTDFTLKISRVEAEDVGVYYCSQSTHVPFTFGGGTKLEIKR
B1: the binding entry is “binds”.

B2: AHF16312 전장 항체 (full length antibody, IgG4) (antibody, V domains shown)
VH: B1 VH with M103I
VL: B1 VL with P61T
B2: the binding entry is on record as “binds”.

B3: AHF16310 전장 항체 (full length antibody, IgG4) (antibody, V domains shown)
VH: B1 VH
VL: B1 VL with N39H, P61T
As to B3, the binding result was “binds”.
